Consider five molecules from PMC4420602.

Results are given in words; binding and its absence hold for the method and conditions named. In cells and extracts the contact can be indirect. These calls come from enrichment with a bait or labelling near it, and not all partners need be listed.

For this experiment, the target named is T1, DJ1 (rat (endogenous in Sprague-Dawley rat liver)) (UniProt O88767).
T1 sequence: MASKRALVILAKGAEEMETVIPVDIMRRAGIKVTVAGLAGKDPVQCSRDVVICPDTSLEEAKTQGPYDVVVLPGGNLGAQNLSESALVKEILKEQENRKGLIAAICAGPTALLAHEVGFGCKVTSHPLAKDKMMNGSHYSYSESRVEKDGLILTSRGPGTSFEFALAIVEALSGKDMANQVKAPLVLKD
Briefly: affinity purification with mass spectrometry; co-IP with anti-DJ1 antibody and protein A/G PLUS agarose from rat liver lysates (pooled sample of six rats per group; male and female, control and STZ-induced diabetic), 4°C, beads washed three times with RIPA buffer; 10% SDS-PAGE, silver staining, excised bands identified by peptide mass fingerprinting (MALDI-TOF, MASCOT); control rabbit and rat IgGs as negative control.

For the molecule glutathione S-transferase, the binding entry is listed as “binds”.

On to stress 70 protein, for which the binding result was “binds”.

B1: betaine-homocysteine S-methyl transferase (protein, UniProt O09171 1-407)
chain: MAPIAGKKAKRGILERLNAGEVVIGDGGFVFALEKRGYVKAGPWTPEAAVEHPEAVRQLHREFLRAGSNVMQTFTFYASEDKLENRGNYVAEKISGQKVNEAACDIARQVADEGDALVAGGVSQTPSYLSCKSETEVKKIFHQQLEVFMKKNVDFLIAEYFEHVEEAVWAVEALKTSGKPIAATMCIGPEGDLHGVSPGECAVRLVKAGAAIVGVNCHFDPSTSLQTIKLMKEGLEAARLKAYLMSHALAYHTPDCGKQGFIDLPEFPFGLEPRVATRWDIQKYAREAYNLGVRYIGGCCGFEPYHIRAIAEELAPERGFLPPASEKHGSWGSGLDMHTKPWIRARARKEYWQNLRIASGRPYNPSMSKPDAWGVTKGAAELMQQKEATTEQQLRALFEKQKFKSAQ
B1: the binding result is reported as “binds”.

B2: carbonic anhydrase 3 (protein, UniProt P14141 1-260)
chain: MAKEWGYASHNGPEHWHELYPIAKGDNQSPIELHTKDIRHDPSLQPWSVSYDPGSAKTILNNGKTCRVVFDDTFDRSMLRGGPLSGPYRLRQFHLHWGSSDDHGSEHTVDGVKYAAELHLVHWNPKYNTFGEALKQPDGIAVVGIFLKIGREKGEFQILLDALDKIKTKGKEAPFNHFDPSCLFPACRDYWTYHGSFTTPPCEECIVWLLLKEPMTVSSDQMAKLRSLFASAENEPPVPLVGNWRPPQPIKGRVVRASFK
As to B2, the binding entry is listed as “binds”.

B3: carbamoyl-phosphate synthase (protein, UniProt P07756 39-1500)
chain: LSVKAQTAHIVLEDGTKMKGYSFGHPSSVAGEVVFNTGLGGYSEALTDPAYKGQILTMANPIIGNGGAPDTTARDELGLNKYMESDGIKVAGLLVLNYSHDYNHWLATKSLGQWLQEEKVPAIYGVDTRMLTKIIRDKGTMLGKIEFEGQSVDFVDPNKQNLIAEVSTKDVKVFGKGNPTKVVAVDCGIKNNVIRLLVKRGAEVHLVPWNHDFTQMDYDGLLIAGGPGNPALAQPLIQNVKKILESDRKEPLFGISTGNIITGLAAGAKSYKMSMANRGQNQPVLNITNRQAFITAQNHGYALDNTLPAGWKPLFVNVNDQTNEGIMHESKPFFAVQFHPEVSPGPTDTEYLFDSFFSLIKKGKGTTITSVLPKPALVASRVEVSKVLILGSGGLSIGQAGEFDYSGSQAVKAMKEENVKTVLMNPNIASVQTNEVGLKQADAVYFLPITPQFVTEVIKAERPDGLILGMGGQTALNCGVELFKRGVLKEYGVKVLGTSVESIMATEDRQLFSDKLNEINEKIAPSFAVESMEDALKAADTIGYPVMIRSAYALGGLGSGICPNKETLMDLGTKAFAMTNQILVERSVTGWKEIEYEVVRDADDNCVTVCNMENVDAMGVHTGDSVVVAPAQTLSNAEFQMLRRTSINVVRHLGIVGECNIQFALHPTSMEYCIIEVNARLSRSSALASKATGYPLAFIAAKIALGIPLPEIKNVVSGKTSACFEPSLDYMVTKIPRWDLDRFHGTSSRIGSSMKSVGEVMAIGRTFEESFQKALRMCHPSVDGFTPRLPMNKEWPANLDLRKELSEPSSTRIYAIAKALENNMSLDEIVKLTSIDKWFLYKMRDILNMDKTLKGLNSESVTEETLRQAKEIGFSDKQISKCLGLTEAQTRELRLKKNIHPWVKQIDTLAAEYPSVTNYLYVTYNGQEHDIKFDEHGIMVLGCGPYHIGSSVEFDWCAVSSIRTLRQLGKKTVVVNCNPETVSTDFDECDKLYFEELSLERILDIYHQEACNGCIISVGGQIPNNLAVPLYKNGVKIMGTSPLQIDRAEDRSIFSAVLDELKVAQAPWKAVNTLNEALEFANSVGYPCLLRPSYVLSGSAMNVVFSEDEMKRFLEEATRVSQEHPVVLTKFIEGAREVEMDAVGKEGRVISHAISEHVEDAGVHSGDATLMLPTQTISQGAIEKVKDATRKIAKAFAISGPFNVQFLVKGNDVLVIECNLRASRSFPFVSKTLGVDFIDVATKVMIGESVDEKHLPTLEQPIIPSDYVAIKAPMFSWPRLRDADPILRCEMASTGEVACFGEGIHTAFLKAMLSTGFKIPQKGILIGIQQSFRPRFLGVAEQLHNEGFKLFATEATSDWLNANNVPATPVAWPSQEGQNPSLSSIRKLIRDGSIDLVINLPNNNTKFVHDNYVIRRTAVDSGIALLTNFQVTKLFAEAVQKARTVDSKSLFHYRQYSAGKAA
As to B3, the binding result was “binds”.
